Data reported in patent publication US9234043.
Results are given in words; binding and its absence hold for the method and conditions named. Some results given as binding are weak or reduced against the parent protein; the word gives no strength.

B1: 2D10 (hybridoma) (antibody, V domains shown)
VH: EVQLVESGGGLVQPGGSLRLSCAASGFTFSNYAMNWVRQAPGKGLEWVSTISGSGGATRYADSVKGRFTISRDNSRNTVYLQMNSLRVEDTAVFYCTKDRLIMATVRGPYYYGMDVWGQGTTVTVSS
VL: DIQMTQSPSSLSASVGDRVTITCRASQSISSYLNWYQQKPGKAPNLLIYAASSLQSGVPSRFSGSGSETDFTLTISSLQPEDFATYYCQQSHSVSFTFGPGTKVDIK
B2: 2D10 (human) (antibody, human IgG4 S228P, kappa, V domains shown)
VH: B1 VH
VL: DIQMTQSPSSLSASVGDRVTITCRASQSISSYLNWYQQKPGKAPNLLIYAASSLQSGVPSRFSGSGSETDFTLTISSLQPEDFATYYCQQSHSVSFTFGPGTKVDIKR
B3: 10A07 (hybridoma) (antibody, V domains shown)
VH: EVQLVESGGVLVQPGGSLRLSCAASGFTFSSYIMTWVRQAPGKGLEWVSGISGSGGGTYYADSMKGRFTISRDNSKNTLYLQMNSLRVEDTAVYYCAKDRLGPITLVRGGYYYGMDVWGQGTTVTVSS
VL: DIQMTQSPSSLSASVGDRVTITCRASQSISDYLNWYQQKPGKAPKFLIYAASSLQSGVPSRFSGSGSGTDFTLTVSSLQPEDFATYYCQQSYSTPRTFGQGTRVEIK
B4: 10A07 (human) (antibody, human IgG4 S228P, kappa, V domains shown)
VH: B3 VH
VL: DIQMTQSPSSLSASVGDRVTITCRASQSISDYLNWYQQKPGKAPKFLIYAASSLQSGVPSRFSGSGSGTDFTLTVSSLQPEDFATYYCQQSYSTPRTFGQGTRVEIKR

target: recombinant Rhesus (Macaca mulatta) OX40L (Rhesus (Macaca mulatta)); assay: SPR (ProteOn XPR36), antibody captured, rhesus OX40L at 256 nM, 25 C; CNROR = Cannot resolve off-rate

Binder	binding
B1	binds
B2	binds
B3	binds
B4	binds
